Source: ChEMBL document CHEMBL3988442, “University of Dundee, Small-Polar-MMV Screening Library” (2021).

The chains behind the UniProt entries cited, without tags or fusion partners. Residues count along the entry.
UniProt P9WPC5, whole entry: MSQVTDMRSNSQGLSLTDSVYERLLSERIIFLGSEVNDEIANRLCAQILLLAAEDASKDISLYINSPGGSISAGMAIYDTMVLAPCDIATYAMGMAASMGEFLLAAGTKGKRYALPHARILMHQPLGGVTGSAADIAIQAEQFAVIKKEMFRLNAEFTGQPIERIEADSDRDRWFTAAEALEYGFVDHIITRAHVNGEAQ
UniProt P9WPC3, whole entry partner: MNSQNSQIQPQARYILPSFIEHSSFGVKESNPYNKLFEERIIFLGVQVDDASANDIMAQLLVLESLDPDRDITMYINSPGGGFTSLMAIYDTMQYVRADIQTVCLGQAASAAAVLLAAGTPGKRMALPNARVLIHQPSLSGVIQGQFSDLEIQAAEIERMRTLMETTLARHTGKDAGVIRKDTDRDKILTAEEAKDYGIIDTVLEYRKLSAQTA
UniProt A4I591, 1-473: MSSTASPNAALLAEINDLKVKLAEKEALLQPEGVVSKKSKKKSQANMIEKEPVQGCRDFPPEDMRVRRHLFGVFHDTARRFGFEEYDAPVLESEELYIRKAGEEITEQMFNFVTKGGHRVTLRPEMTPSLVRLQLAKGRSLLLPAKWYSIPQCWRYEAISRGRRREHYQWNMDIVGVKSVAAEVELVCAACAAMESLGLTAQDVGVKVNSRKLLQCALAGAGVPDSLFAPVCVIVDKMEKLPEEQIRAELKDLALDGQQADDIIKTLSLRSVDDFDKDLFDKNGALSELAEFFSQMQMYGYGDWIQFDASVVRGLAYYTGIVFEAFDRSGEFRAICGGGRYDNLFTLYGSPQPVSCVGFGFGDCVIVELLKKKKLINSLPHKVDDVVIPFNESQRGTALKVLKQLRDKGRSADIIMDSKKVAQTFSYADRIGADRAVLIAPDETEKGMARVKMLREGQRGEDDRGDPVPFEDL

ClpP1P2: 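ClpP1P2, Mycobacterium tuberculosis (UniProt P9WPC5 and UniProt P9WPC3). Protease assay of ClpP1P2, read by the AMC dye that it sets free. Tested at 50 µM. Direction is inferred from only a few compounds that gave an IC50; most scored high, so higher reads as stronger inhibition. Most other retested compounds had strongly negative values. Of about 69,000 compounds tested this way, about 10 (0.015%) reached 50% or more in at least one test.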
LiHisRS: 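Enzyme assay of histidyl-tRNA synthetase; the read-out is not stated. Target: Histidine-tRNA ligase, Leishmania infantum (UniProt A4I591). Concentration: 30 µM. Direction is inferred from retests: higher values go with stronger inhibition. The assay is labelled LdHisRS but filed under L. infantum. Size under these conditions: about 69,000 compounds, about 410 of them at 50% or above in at least one test.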

Results are given as percent effect.
How 0% and 100% were set is not recorded. Most values in the screen are low, and negative values occur.
Compounds were drawn at random from those tested, without regard to their results.

| # | SMILES | ClpP1P2 | LiHisRS |
|---|---|---|---|
| 1 | `CN(C)Cc1nc(-n2cnc(C(=O)NCC3CC3)c2)n2ccccc12` | -15.13% | 13.46% |
| 2 | `O=C(N1CCOCC1)N1C[C@H]2CC[C@@H]1CN(C1Cc3ccccc3C1)C2` | 4.159% | 11.48% |
| 3 | `c1coc(-c2nc(CN3CCn4c(nnc4C4CC4)C3)cs2)c1` | -31.16% | 26.42% |
| 4 | `CN(Cc1cccc(-n2cccn2)c1)C(=O)c1ccnc(N)c1` | -12.21% | 3.226% |
| 5 | `Cc1nc(CN2CCCN(CC(=O)Nc3ccncc3)CC2)no1` | -10.85% | 9.917% |
| 6 | `COCCN1CCN(C(C(=O)O)c2ccc(SC)cc2)CC1` (centres undefined) | -9.17% | 16.13% |
| 7 | `Cc1nn(C)c2c(=O)n(Cc3ccccc3)nnc12` | -2.408% | -3.448% |
| 8 | `CCOCC1CN(S(=O)(=O)C2CC2)Cc2cnn(C)c21` (centres undefined) | -5.187% | -11.76% |
| 9 | `COc1cccc(CN(C)C(=O)CN2CCN(c3nccn3C)CC2)c1` | -0.7508% | 0.9709% |
| 10 | `O=C1CC2(CCSC2)C(=O)N1Cc1ncc(-c2cccc(F)c2)o1` (centres undefined) | -5.126% | 8.333% |
| 11 | `O=C(N1CCCC1)N1CCn2c(nnc2C2CCCN2)C1` (centres undefined) | 0.7215% | 15.17% |
| 12 | `Cn1ccnc1CN1CCC(c2ccnc(-c3cccc(O)c3)c2)C1` (centres undefined) | 2.155% | 26.76% |
| 13 | `O=C(c1cnco1)N1CCC(Cc2cccc3ncccc23)CC1` | 12.45% | 13.99% |
| 14 | `CCn1cnnc1C1CCN(C(=O)c2cccc(N(C)C)c2)CC1` | 0.4258% | 20.22% |
| 15 | `CN(C)CC1CN(Cc2coc(-c3ccccc3)n2)CCO1` (centres undefined) | -10.84% | 11.3% |
| 16 | `CCC[C@H]1CN(S(C)(=O)=O)C[C@@H]1NC(=O)CCCn1ccnc1` | -18.72% | -6.579% |
| 17 | `CCc1nnc2n1CCN(C(=O)c1ccc3c(c1)NC(=O)CO3)C2` | 5.729% | 15.38% |
| 18 | `O=C(NCCN1CCOCC1)c1cc2c(s1)CCN2Cc1cccnc1` | 13.21% | 19.3% |
| 19 | `Cc1nocc1C(=O)N1CCc2c(CN(C)C)nn(C)c2C1` | -6.424% | 11.93% |
| 20 | `O=C(Nc1cccc(OCc2cccc(F)c2)c1)C1COCCO1` (centres undefined) | -17.56% | 2.913% |
| 21 | `O=c1[nH]ncn1-c1cccc(C(F)(F)F)c1` | 9.199% | 18.75% |
| 22 | `O=C(CCc1ccc2c(c1)OCO2)N1CCCCC1Cn1cccn1` (centres undefined) | -41.49% | 11.5% |
| 23 | `OCC1COCCN(Cc2cc(C3CCCCC3)no2)C1` (centres undefined) | -26.47% | 15.38% |
| 24 | `CCOc1ccc(N2CCCN=C2NC(=O)c2cccc(OC)c2)cc1` | 16.62% | 3.448% |
| 25 | `CCN(C(=O)COc1nc(C(C)(C)C)no1)C1CC1` | -0.9597% | 7.292% |
| 26 | `Cc1ccc(C2CN(C(=O)NCc3nnc4ccccn34)CCO2)o1` (centres undefined) | 5.692% | 4% |
| 27 | `Cc1nsc(N2CCCN(C(=O)c3ccc4[nH]ccc4c3)CC2)n1` | -10.19% | 0% |
| 28 | `Cc1cc(-c2cnc(NCc3ccncc3)nc2C(C)C)on1` | -2.214% | 13.54% |
| 29 | `Cc1nc2ccccc2c(=O)n1CCC(=O)N1CCCCCC1` | -13.7% | 17.86% |
| 30 | `CC/C=C(/C)C(=O)NCc1ccnc(OC2CCOCC2)c1` | 5.773% | 14.04% |
| 31 | `CSc1nccc(N2CCC(NCCN3CCOCC3)CC2)n1` | -4.814% | 15.38% |
| 32 | `Cn1nnc2c1CCN(Cc1ccncc1)C2COCc1ccccc1` (centres undefined) | -6.032% | 21.05% |
| 33 | `O=C1[C@H]2CN(C(=O)[C@H]3CCCO3)C[C@H]2CN1CC1CC1` | -0.3608% | 15.38% |
| 34 | `Cc1nc(-c2ccccc2)sc1C(=O)N(C1CC1)C1CC(=O)NC1=O` (centres undefined) | 0.09248% | 26.76% |
| 35 | `c1cc(CN2CCc3ncc(CN4CCOCC4)n3CC2)cs1` | -1.061% | 20.97% |
| 36 | `CC1CCCCN1S(=O)(=O)NCCN/C(O)=C1/N=CC=CC1=O` (centres undefined) | -1.459% | 2.618% |
| 37 | `CCCS(=O)(=O)N1CCN(c2cc(-n3cnc(C)c3C)nc(C)n2)CC1` | -10.68% | 0.9434% |
| 38 | `CCn1cncc1CN1CCN(CC2(c3ccc(C)cc3)CC2)CC1` | 31.85% | 5.674% |
| 39 | `Cn1cc(C(=O)N2CCCC2c2ccc3c(c2)OCCO3)ccc1=O` (centres undefined) | 7.762% | 27.27% |
| 40 | `Cc1ccc(OC2(C(=O)O)CCN(C(=O)c3cccc(F)c3)CC2)cn1` | -7.042% | 13.89% |
| 41 | `CN1CCOCC2(CCCN(C(=O)c3cnccn3)C2)C1` (centres undefined) | 9.576% | 13.76% |
| 42 | `O=c1cc(CN2CCCC2)nc2n1CCCN(Cc1ccco1)C2` | -4.942% | 12% |
| 43 | `COc1ccc(Cl)cc1CCNC(=O)NCc1ncnn1C` | -0.3227% | 16.81% |
| 44 | `CC(C)(C)CN1CCCC(O)(CN2CCc3[nH]ncc3C2)C1=O` (centres undefined) | 2.926% | 7.042% |
| 45 | `Cc1nc(CN2CCCN(Cc3nc4c(F)cccc4[nH]3)CC2)no1` | -8.731% | 19.05% |
| 46 | `CC(C)c1cc(NC(=O)c2cccnc2)[nH]n1` | -13.72% | 12.17% |
| 47 | `COCc1nc2cc(NCc3sc(C)nc3C)ccc2o1` | 8.028% | 79.46% |
| 48 | `CN(C)S(=O)(=O)N1C[C@@H]2CC[C@H](C1)N(CCC(=O)NCc1ccco1)C2` | -14.14% | 13.56% |
| 49 | `CCOc1ccccc1N1CCN(C(=O)NCc2cc[nH]n2)CC1` | -19.78% | -0.8929% |
| 50 | `c1ccc(N2CCCC3(CCN(Cc4cccs4)C3)C2)nc1` (centres undefined) | 6.028% | 2.439% |
| 51 | `Cn1c2ccc(F)cc2c2ncn(CCN3CCOCC3)c(=O)c21` | -6.598% | -15.22% |
| 52 | `Cn1ccnc1CN1CCCC(CCCc2ccccn2)(C(N)=O)C1` (centres undefined) | -4.298% | 4.255% |
| 53 | `Cc1nnc(CCNC(=O)Nc2ccc(S(C)(=O)=O)cc2)[nH]1` | 9.52% | -15.56% |
| 54 | `Cc1cnc(CNC(=O)NCCOc2ncccc2Cl)s1` | 1.121% | 9.375% |
| 55 | `Cc1ccn(-c2ccnc(N3CCN(c4ncccn4)CC3)n2)n1` | -13.61% | 12.5% |
| 56 | `O=C(NCc1ccccc1CN1CCC(O)CC1)Nc1ccccc1` | -5.994% | 14.52% |
| 57 | `CN(C)CC1CSCCCN1C(=O)c1ccc(-c2ccccc2)cc1` (centres undefined) | -18.66% | 15.07% |
| 58 | `O=C(NCc1cccnc1)NC1CCCN(c2ncccn2)C1` (centres undefined) | -3.73% | 15.09% |

7 of the entries, repeated:

| SMILES | ClpP1P2 | LiHisRS |
|---|---|---|
| `Cc1nc(-c2ccccc2)sc1C(=O)N(C1CC1)C1CC(=O)NC1=O` (centres undefined) | 0.09248% | 26.76% |
| `O=c1[nH]ncn1-c1cccc(C(F)(F)F)c1` | 9.199% | 18.75% |
| `Cc1cc(-c2cnc(NCc3ccncc3)nc2C(C)C)on1` | -2.214% | 13.54% |
| `O=C1CC2(CCSC2)C(=O)N1Cc1ncc(-c2cccc(F)c2)o1` (centres undefined) | -5.126% | 8.333% |
| `CN(Cc1cccc(-n2cccn2)c1)C(=O)c1ccnc(N)c1` | -12.21% | 3.226% |
| `Cc1ccn(-c2ccnc(N3CCN(c4ncccn4)CC3)n2)n1` | -13.61% | 12.5% |
| `CC1CCCCN1S(=O)(=O)NCCN/C(O)=C1/N=CC=CC1=O` (centres undefined) | -1.459% | 2.618% |